{
  "sequences": {"note": "Amino acid sequences for entries named in this document (tags omitted).", "UniProt Q24572": "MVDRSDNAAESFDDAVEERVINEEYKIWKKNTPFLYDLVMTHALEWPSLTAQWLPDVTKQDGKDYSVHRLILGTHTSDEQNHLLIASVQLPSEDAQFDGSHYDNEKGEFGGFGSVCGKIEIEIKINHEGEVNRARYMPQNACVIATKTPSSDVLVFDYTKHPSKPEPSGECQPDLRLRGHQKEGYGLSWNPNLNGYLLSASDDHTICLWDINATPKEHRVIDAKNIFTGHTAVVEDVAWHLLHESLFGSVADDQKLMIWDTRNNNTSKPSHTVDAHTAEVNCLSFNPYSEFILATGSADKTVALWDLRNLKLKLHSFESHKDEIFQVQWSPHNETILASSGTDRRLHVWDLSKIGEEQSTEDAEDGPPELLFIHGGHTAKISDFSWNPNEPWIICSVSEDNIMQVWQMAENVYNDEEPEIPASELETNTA"},
  "source": "paper PMC7891773",
  "target": "T1, GST-mFOG1 (aa 1-45) (mouse) (UniProt O35615)",
  "T1 sequence": "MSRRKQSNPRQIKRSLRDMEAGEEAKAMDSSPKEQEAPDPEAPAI",
  "assay": "pull-down; GST-mFOG1(1-45) on Glutathione Sepharose with S2 cell nuclear extract, without or with competing peptides; Western blot; the pair that is blocked; only the target purified",
  "note": "Results are given in words; binding and its absence hold for the method and conditions named. In cells and extracts the contact can be indirect. Some entries that bind do so weakly or less than the wild type. Where a sequence is shown, tags or fusion partners need not be part of it.",
  "data": [
    {"substance": "dp55 (from UniProt Q24572 1-430)", "values": [
      {"measurement": "binding", "result": "binds"}
    ]}
  ]
}
